According to patent US11044910B2, “Mesoionic insecticides” (priority 2017, dated 2021):
Counter-ions that a name gives are not always drawn. Like-named read-outs stand apart in the source and are kept apart here. Some entries share one result that the patent states for a list of compounds.

What was measured:
Format in all cases: in vivo
[1] = test system: potato leafhopper (Empoasca fabae (Harris)); conditions: Soleil bean plant, adults, after 6 days
[2] = test system: fall armyworm (Spodoptera frugiperda (J. E. Smith)); assay: Test B: control of fall armyworm, foliar spray on corn plant; conditions: 1-day-old larvae, assessed after 6 days, very good to excellent control
[3] = test system: corn planthopper (Peregrinus maidis (Ashmead)); conditions: corn plant, nymphs, after 6 days
[4] = test system: diamondback moth (Plutella xylostella (L.)); assay: Test A: control of diamondback moth, foliar spray on mustard plant; conditions: neonate larvae, assessed after 6 days, very good to excellent control
[5] = test system: Western Flower Thrips (Frankliniellla occidentalis (Pergande)); assay: Test G: control of Western Flower Thrips through contact and/or systemic means; conditions: Soleil bean plant, adults and nymphs, after 6 days, very good to excellent control
[6] = test system: cotton melon aphid (Aphis gossypii (Glover)); conditions: okra plant, after 6 days
[7] = test system: green peach aphid (Myzus persicae (Sulzer)); conditions: radish plant, after 6 days

| SMILES | mortality ([1]; sprayed at 250 ppm) | control efficacy: feeding damage (40% or less feeding damage and/or 100% mortality) ([2]; sprayed at 250 ppm) | control efficacy: feeding damage (40% or less feeding damage and/or 100% mortality) ([4]; sprayed at 50 ppm) | control efficacy: feeding damage (40% or less feeding damage and/or 100% mortality) ([4]; sprayed at 250 ppm) | further results |
| --- | --- | --- | --- | --- | --- |
| O=C(c1c([O-])n2ccccc2[n+]1Cc1cnc(Cl)s1)C(F)(F)C(F)(F)C(F)(F)C(F)(F)F [Compound 7] | at least 80% | ≤ 40% | ≤ 40% | ≤ 40% | control efficacy: feeding damage (40% or less feeding damage and/or 100% mortality) ([2]; sprayed at 50 ppm): ≤ 40%; mortality ([3]; sprayed at 250 ppm): at least 80% |
| O=C(c1c([O-])n2ccccc2[n+]1Cc1cnc(Cl)s1)C1CC(F)(F)C1 [Compound 105] | at least 80% | – | ≤ 40% | ≤ 40% | – |
| O=C(c1c([O-])n2ccccc2[n+]1Cc1cnc(Cl)s1)C(F)(F)F [Compound 3] | at least 80% | ≤ 40% | ≤ 40% | ≤ 40% | mortality ([1]; sprayed at 50 ppm): at least 80%; control efficacy: plant damage (30% or less plant damage and/or 100% mortality) ([5]; sprayed at 50 ppm): ≤ 30%; control efficacy: plant damage (30% or less plant damage and/or 100% mortality) ([5]; sprayed at 250 ppm): ≤ 30%; mortality ([6]; sprayed at 50 ppm): at least 80%; mortality ([6]; sprayed at 250 ppm): at least 80%; mortality ([3]; sprayed at 50 ppm): at least 80%; mortality ([3]; sprayed at 250 ppm): at least 80%; mortality ([7]; sprayed at 50 ppm): at least 80%; mortality ([7]; sprayed at 250 ppm): at least 80% |
| CS(=O)(=O)c1ccc(C(=O)c2c([O-])n3ccccc3[n+]2Cc2cnc(Cl)s2)c(Cl)c1 [Compound 88] | at least 80% | – | – | ≤ 40% | mortality ([1]; sprayed at 50 ppm): at least 80% |
| COc1ccc(OC)c(C(=O)c2c([O-])n3ccccc3[n+]2Cc2cnc(Cl)s2)c1 [Compound 76] | – | – | ≤ 40% | ≤ 40% | control efficacy: plant damage (30% or less plant damage and/or 100% mortality) ([5]; sprayed at 250 ppm): ≤ 30% |
| O=C(CNc1ccccc1)c1c([O-])n2ccccc2[n+]1Cc1cnc(Cl)s1 [Compound 145] | at least 80% | – | – | – | – |
| O=C(c1c([O-])n2ccccc2[n+]1Cc1cnc(Cl)s1)C(F)(F)C(F)(F)F [Compound 6] | – | ≤ 40% | ≤ 40% | ≤ 40% | control efficacy: plant damage (30% or less plant damage and/or 100% mortality) ([5]; sprayed at 250 ppm): ≤ 30% |
| O=C(CCl)c1c([O-])n2ccccc2[n+]1Cc1cnc(Cl)s1 [Compound 84] | at least 80% | – | – | – | – |
| O=C(c1ccccc1)c1c([O-])[n+]2ccccc2n1Cc1cnc(Cl)s1 [Compound 1, 2-benzoyl-1-[(2-chloro-5-thiazolyl)methyl]-3-hydroxyimidazo[1,2-a]pyridinium Inner Salt] | – | – | ≤ 40% | ≤ 40% | control efficacy: plant damage (30% or less plant damage and/or 100% mortality) ([5]; sprayed at 50 ppm): ≤ 30%; control efficacy: plant damage (30% or less plant damage and/or 100% mortality) ([5]; sprayed at 250 ppm): ≤ 30% |
| COc1cc(OC)cc(C(=O)c2c([O-])n3ccccc3[n+]2Cc2cnc(Cl)s2)c1 [Compound 51] | at least 80% | – | – | ≤ 40% | mortality ([6]; sprayed at 250 ppm): at least 80% |
| O=C(c1ccc(C(F)(F)F)cc1)c1c([O-])n2ccccc2[n+]1Cc1cnc(Cl)s1 [Compound 5] | – | ≤ 40% | ≤ 40% | ≤ 40% | control efficacy: feeding damage (40% or less feeding damage and/or 100% mortality) ([2]; sprayed at 50 ppm): ≤ 40% |
| O=C(c1ccc(C(F)(F)F)cc1F)c1c([O-])n2ccccc2[n+]1Cc1cnc(Cl)s1 [Compound 92] | – | ≤ 40% | ≤ 40% | ≤ 40% | control efficacy: feeding damage (40% or less feeding damage and/or 100% mortality) ([2]; sprayed at 50 ppm): ≤ 40% |
| O=C(CCC(F)(F)Cl)c1c([O-])n2ccccc2[n+]1Cc1cnc(Cl)s1 [Compound 100] | – | ≤ 40% | ≤ 40% | ≤ 40% | – |
| O=C(c1c(F)ccc(F)c1F)c1c([O-])n2ccccc2[n+]1Cc1cnc(Cl)s1 [Compound 61] | – | ≤ 40% | ≤ 40% | ≤ 40% | – |
| O=C(c1ccc2occc2c1)c1c([O-])n2ccccc2[n+]1Cc1cnc(Cl)s1 [Compound 131] | – | ≤ 40% | ≤ 40% | ≤ 40% | – |
| O=C(c1cccc2c1OCO2)c1c([O-])n2ccccc2[n+]1Cc1cnc(Cl)s1 [Compound 114] | – | ≤ 40% | ≤ 40% | ≤ 40% | – |
| O=C(c1cc(Br)ccc1F)c1c([O-])n2ccccc2[n+]1Cc1cnc(Cl)s1 [Compound 72] | – | ≤ 40% | ≤ 40% | ≤ 40% | control efficacy: feeding damage (40% or less feeding damage and/or 100% mortality) ([2]; sprayed at 50 ppm): ≤ 40% |
| O=C(CNc1ccc(F)cc1)c1c([O-])n2ccccc2[n+]1Cc1cnc(Cl)s1 [Compound 146] | at least 80% | – | – | – | – |
| O=C(c1ccc(Cl)nc1)c1c([O-])n2ccccc2[n+]1Cc1cnc(Cl)s1 [Compound 15] | – | ≤ 40% | ≤ 40% | ≤ 40% | – |
| O=C(c1ccc(Br)cc1F)c1c([O-])n2ccccc2[n+]1Cc1cnc(Cl)s1 [Compound 68] | – | ≤ 40% | ≤ 40% | ≤ 40% | – |
| O=C(c1ccc2c(c1)OCO2)c1c([O-])n2ccccc2[n+]1Cc1cnc(Cl)s1 [Compound 104] | – | ≤ 40% | ≤ 40% | ≤ 40% | – |
| COc1cccc(C(=O)c2c([O-])n3ccccc3[n+]2Cc2cnc(Cl)s2)c1F [Compound 50] | – | ≤ 40% | ≤ 40% | ≤ 40% | – |
| Cc1ccc(C(=O)c2c([O-])n3ccccc3[n+]2Cc2cnc(Cl)s2)cc1 [Compound 23] | – | ≤ 40% | ≤ 40% | ≤ 40% | – |
| COc1cccc(C(=O)c2c([O-])n3ccccc3[n+]2Cc2cnc(Cl)s2)c1 [Compound 33] | – | ≤ 40% | ≤ 40% | ≤ 40% | – |
| O=C(c1cccc(OC(F)(F)F)c1)c1c([O-])n2ccccc2[n+]1Cc1cnc(Cl)s1 [Compound 18] | – | ≤ 40% | ≤ 40% | ≤ 40% | – |
